PubChem BioAssay AID1259278, Sanger Institute, 2017
The whole screen tested 160 reagents; below is a random part of them. In the full data, 54 (34%) were called active. 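Each call rests on one siRNA duplex in one cell line; gene-level support needs several duplexes and lines.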 Entries without a mark were called inactive. The numbers tell different reagents against one gene apart. No viability above 1 is reported: the scale is capped. Not given: the amount of reagent, the time to read-out.

Assay: 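Follow-up of kinome siRNA hits that combine with three anchor drugs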 (follow-up of hits)
Cell system: human HT55 colorectal cancer cells
Reagents: single siRNA against human genes
Conditions: anchor drugs added to knock-down cells: cetuximab 5 µg/ml, trametinib 10 nM or BYL719 1 µM, against DMSO vehicle; chosen to hurt viability little alone
Measurement: 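Viability averaged against the control control pool 2 (non-targeting), plus a synergy score of knock-down with drug for each anchor drug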
Scale: synergy score with BYL719 and synergy score with cetuximab and synergy score with trametinib: higher = stronger combined killing with knock-down; viability, knock-down alone (DMSO): higher = more cells survive
Hit rule: 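a knock-down is called active when its synergy score is above 0.10 for one or more anchor drugs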
Meaning of the calls: active = synergy with an anchor drug; inactive = no synergy

no.	Gene	siRNA no.	synergy score with BYL719	synergy score with cetuximab	synergy score with trametinib	viability, knock-down alone (DMSO)
1	PINK1	1	-0.303	-0.195	0.04	1
2	PINK1	2	0.0373	0.0906	0.0288	0.842
3	PINK1	3	0.0673 (active)	0.057	0.114	0.617
4	PINK1	4	0.0207 (active)	0.191	0.104	0.904
5	SYK	1	-0.131	0.0198	0.0723	0.554
6	SYK	2	-0.256	0.0486	-0.0386	0.798
7	SYK	3	-0.192	-0.0673	0.0915	0.763
8	SYK	4	-0.331	-0.1	-0.154	1
9	ACVR1	1	-0.321	-0.171	0.0346	1
10	ACVR1	2	-0.0243 (active)	0.0857	0.253	0.85
11	ACVR1	3	-0.134	0.0863	0.0675	0.875
12	ACVR1	4	-0.0252 (active)	0.149	0.14	0.969
13	RPS6KA4	1	-0.257	-0.139	-0.168	0.687
14	RPS6KA4	2	-0.156	-0.0281	-0.105	0.718
15	RPS6KA4	3	-0.0225	-0.0706	-0.00674	0.838
16	RPS6KA4	4	0.0239	-0.0902	0.0724	0.6
17	GTF2H1	1	-0.086	0.0118	-0.0577	0.699
18	GTF2H1	2	-0.108	-0.169	-0.00761	0.551
19	GTF2H1	3	-0.0666	-0.00284	-0.0475	0.645
20	GTF2H1	4	-0.0136 (active)	-0.0756	0.127	0.625

Continued, starting with the last 7 of the part before.
no.	Gene	siRNA no.	synergy score with BYL719	synergy score with cetuximab	synergy score with trametinib	viability, knock-down alone (DMSO)
14	RPS6KA4	2	-0.156	-0.0281	-0.105	0.718
15	RPS6KA4	3	-0.0225	-0.0706	-0.00674	0.838
16	RPS6KA4	4	0.0239	-0.0902	0.0724	0.6
17	GTF2H1	1	-0.086	0.0118	-0.0577	0.699
18	GTF2H1	2	-0.108	-0.169	-0.00761	0.551
19	GTF2H1	3	-0.0666	-0.00284	-0.0475	0.645
20	GTF2H1	4	-0.0136 (active)	-0.0756	0.127	0.625
21	EPHA6	1	-0.115	0.0701	0.000774	0.557
22	EPHA6	2	-0.119	0.0369	-0.00586	0.308
23	EPHA6	3	-0.0507 (active)	0.0292	0.243	0.805
24	EPHA6	4	0.00559 (active)	0.222	0.208	1
25	MAP3K8	1	-0.0242 (active)	0.124	0.25	1
26	MAP3K8	2	-0.0543	0.0123	0.00784	0.259
27	MAP3K8	3	-0.132	-0.212	-0.0242	0.602
28	MAP3K8	4	-0.0181 (active)	0.116	0.104	0.759
29	CHD4	1	0.0139	0.0263	0.0762	0.358
30	CHD4	2	-0.0567	0.0399	0.0642	0.437
31	CHD4	3	-0.0676	0.0565	0.0357	0.663
32	CHD4	4	-0.131	-0.021	0.0303	0.46
33	COASY	1	-0.0779	0.0874	0.0364	0.694
34	COASY	2	-0.0284	-0.0501	-0.067	0.212
35	COASY	3	-0.0207	0.0329	-0.0483	0.439
36	COASY	4	-0.107	-0.128	-0.0816	0.408
37	PAK1	1	0.134 (active)	0.182	0.158	0.671
38	PAK1	2	-0.00705 (active)	0.0774	0.132	0.797
39	PAK1	3	-0.0856	-0.0473	0.0906	0.329
40	PAK1	4	-0.399	-0.01	-0.178	0.729
41	STK36	1	0.0224 (active)	0.167	0.0999	0.85
42	STK36	2	-0.0256 (active)	0.256	0.188	1
43	STK36	3	-0.348	-0.114	-0.0279	0.385
44	STK36	4	-0.0333	0.0241	0.0417	0.889
45	CRIM1	1	-0.141	0.0372	-0.0189	0.719
46	CRIM1	2	-0.103	0.0962	-0.0191	0.852
47	CRIM1	3	-0.287	0.0177	-0.092	0.661
48	CRIM1	4	-0.0431	0.0763	0.0552	0.648
49	BRAF	1	-0.0277	0.0724	0.0256	0.571
50	BRAF	2	-0.0612	0.00592	0.0908	0.688
51	BRAF	3	-0.104 (active)	0.0312	0.107	0.632
52	BRAF	4	-0.0495	-0.0874	0.0541	0.758
53	IRAK3	1	-0.0772 (active)	0.118	0.0814	0.643
54	IRAK3	2	-0.103 (active)	0.088	0.304	1
55	IRAK3	3	-0.144	0.023	0.000399	0.582
56	IRAK3	4	0.132 (active)	0.03	0.158	0.928
57	IKBKB	1	-0.176 (active)	0.114	-0.182	0.782
58	IKBKB	2	-0.0151	-0.0377	-0.0215	0.611
59	IKBKB	3	-0.196	0.0983	0.0466	1
60	IKBKB	4	-0.225	-0.0394	-0.124	0.7
